Source: US4940790A, “5-(3-alkyl-5-tert.butyl-4-hydroxyphenyl)-2-amino-6H-1,3,4-thiadiazines” (Hoechst Aktiengesellschaft, priority 1987, dated 1990)

System: NMRI mice
Type: in vivo
Conditions: LD50 (i.p. mice) divided by ED50 (adjuvant arthritis, rats)
Protocol: The LD50 values were determined by a standard method from the mortality occurring within 7 days in NMRI (Naval Medical Research Institute) mice (6 animals per dose) after a single intraperitoneal (i.p.) administration.

## COc1ccc2cc(C(C)C(=O)O)ccc2c1 (stereo not shown) [naproxen, 2-(6-methoxy-2-naphthyl)-propionic acid, reference compound]
  LD50/ED50 quotient: 28.6
